These are yes or no findings as the source states them, for the method shown. Binding seen in cells or lysates may run through a third protein. Some binding calls cover weakened binding; strength is not graded here. For some of these results: Where a sequence is shown, tags or fusion partners need not be part of it. Blank lines part the entries; values can stand above or below the molecule they belong to.
Experiments:
[1] = target: Flag-tagged ZIC5 (zinc finger of the cerebellum 5) (human) (UniProt Q96T25); test: co-IP; 293T cells with exogenous expression of β-catenin or TCF4, tested with ZIC5 (Supplementary Fig. 3D)
[2] = target: Flag-tagged ZIC5 (zinc finger of the cerebellum 5) (human) (UniProt Q96T25); test: co-IP; C4-2B and 22RV1 cells transfected with Flag-tagged ZIC5 or control vector; nuclear proteins; primary antibody 4 h at 4 °C, protein A/G beads overnight, western blot
[3] = target: T1, Flag-tagged ZIC5 (zinc finger of the cerebellum 5) (human), Q96T25; test: as above; conditions: remark: other sources report otherwise
T1 chain: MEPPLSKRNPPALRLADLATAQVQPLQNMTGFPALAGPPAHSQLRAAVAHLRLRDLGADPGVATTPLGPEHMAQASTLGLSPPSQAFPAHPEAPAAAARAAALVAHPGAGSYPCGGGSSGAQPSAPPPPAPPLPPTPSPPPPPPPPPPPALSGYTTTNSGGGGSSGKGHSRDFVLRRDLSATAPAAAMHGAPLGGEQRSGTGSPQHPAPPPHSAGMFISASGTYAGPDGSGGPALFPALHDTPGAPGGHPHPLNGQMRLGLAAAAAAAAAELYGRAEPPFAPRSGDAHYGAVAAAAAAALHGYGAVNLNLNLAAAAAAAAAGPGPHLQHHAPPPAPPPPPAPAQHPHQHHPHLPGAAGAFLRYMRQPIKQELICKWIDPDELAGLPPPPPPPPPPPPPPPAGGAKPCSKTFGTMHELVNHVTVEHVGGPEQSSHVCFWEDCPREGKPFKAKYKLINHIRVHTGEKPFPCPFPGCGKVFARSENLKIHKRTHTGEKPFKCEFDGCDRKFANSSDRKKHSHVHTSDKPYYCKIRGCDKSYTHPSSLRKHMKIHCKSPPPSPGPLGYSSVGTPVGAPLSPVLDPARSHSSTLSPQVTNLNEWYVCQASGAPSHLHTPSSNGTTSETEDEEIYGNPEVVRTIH

Sequences of proteins named here, by UniProt entry; tags and fusion partners are left off.
UniProt Q9NQB0: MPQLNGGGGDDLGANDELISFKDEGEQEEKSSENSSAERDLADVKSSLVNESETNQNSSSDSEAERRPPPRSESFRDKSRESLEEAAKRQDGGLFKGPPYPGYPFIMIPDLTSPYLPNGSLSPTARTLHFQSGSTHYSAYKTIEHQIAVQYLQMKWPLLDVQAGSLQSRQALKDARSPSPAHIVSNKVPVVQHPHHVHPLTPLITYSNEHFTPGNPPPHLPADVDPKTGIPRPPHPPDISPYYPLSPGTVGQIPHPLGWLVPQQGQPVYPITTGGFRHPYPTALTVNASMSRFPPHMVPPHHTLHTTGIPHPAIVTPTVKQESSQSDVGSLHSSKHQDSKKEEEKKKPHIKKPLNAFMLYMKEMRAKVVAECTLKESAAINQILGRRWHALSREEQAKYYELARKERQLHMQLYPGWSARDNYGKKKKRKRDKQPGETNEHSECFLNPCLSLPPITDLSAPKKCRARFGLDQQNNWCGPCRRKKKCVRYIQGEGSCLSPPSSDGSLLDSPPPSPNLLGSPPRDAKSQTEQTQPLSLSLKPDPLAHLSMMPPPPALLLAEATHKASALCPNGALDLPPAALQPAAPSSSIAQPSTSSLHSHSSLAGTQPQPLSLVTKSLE

[4] = target: T1, Flag-tagged ZIC5 (zinc finger of the …); test: co-IP; 293T cells with exogenous expression of β-catenin or TCF4, tested with ZIC5 (Supplementary Fig. 3D); conditions: remark: other sources report otherwise

Molecule: TCF4 (exogenously expressed in 293T) (from UniProt Q9NQB0 1-619)
binding [1]: binds

B2: β-catenin (exogenously expressed in 293T), P35222 1-781 (protein)
chain: MATQADLMELDMAMEPDRKAAVSHWQQQSYLDSGIHSGATTTAPSLSGKGNPEEEDVDTSQVLYEWEQGFSQSFTQEQVADIDGQYAMTRAQRVRAAMFPETLDEGMQIPSTQFDAAHPTNVQRLAEPSQMLKHAVVNLINYQDDAELATRAIPELTKLLNDEDQVVVNKAAVMVHQLSKKEASRHAIMRSPQMVSAIVRTMQNTNDVETARCTAGTLHNLSHHREGLLAIFKSGGIPALVKMLGSPVDSVLFYAITTLHNLLLHQEGAKMAVRLAGGLQKMVALLNKTNVKFLAITTDCLQILAYGNQESKLIILASGGPQALVNIMRTYTYEKLLWTTSRVLKVLSVCSSNKPAIVEAGGMQALGLHLTDPSQRLVQNCLWTLRNLSDAATKQEGMEGLLGTLVQLLGSDDINVVTCAAGILSNLTCNNYKNKMMVCQVGGIEALVRTVLRAGDREDITEPAICALRHLTSRHQEAEMAQNAVRLHYGLPVVVKLLHPPSHWPLIKATVGLIRNLALCPANHAPLREQGAIPRLVQLLVRAHQDTQRRTSMGGTQQQFVEGVRMEEIVEGCTGALHILARDVHNRIVIRGLNTIPLFVQLLYSPIENIQRVAAGVLCELAQDKEAAEAIEAEGATAPLTELLHSRNEGVATYAAAVLFRMSEDKPQDYKKRLSVELTSSLFRTEPMAWNETADLGLDIGAQGEPLGYRQDDPSYRSFHSGGYGQDALGMDPMMEHEMGGHHPGADYPVDGLPDLGHAQDLMDGLPPGDSNQLAWFDTDL
binding [4]: binds

Second part, the molecule after the results:

binding [2]: binds
Molecule: transcription factor 4 (TCF4) (endogenous) (from UniProt Q9NQB0 1-619)

binding [3]: binds
B1: β-catenin (endogenous), P35222 1-781 (protein)
chain: B2 chain

— paper PMC9489711
